Measured values: PMC3285612
These are yes or no findings as the source states them, for the method shown. A result given as binding can be weak or reduced; the word gives no strength.

Target: T1, recombinant Simukunin (rSV-66) (Simulium vittatum) (UniProt B5M0W4)
T1 sequence: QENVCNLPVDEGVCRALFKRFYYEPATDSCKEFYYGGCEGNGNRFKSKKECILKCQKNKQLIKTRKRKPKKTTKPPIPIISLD
Assay: SPR; rSimukunin immobilised on a CM5 chip by amine coupling (475.3 RU); each analyte injected at 200 nM; running buffer HBS-P (10 mM Hepes pH 7.4, 150 mM NaCl, 0.005% P20); Biacore T100; both purified

Substance	binding
activated coagulation factor IX (FIXa) (enzyme)	binds weakly
activated coagulation factor X (FXa), mouse (enzyme)	binds
activated coagulation factor XI (FXIa) (human) (enzyme)	binds weakly

More lines, now with the values ahead:

binding	Substance
binds	activated coagulation factor X (FXa), bovine (enzyme)
binds	activated coagulation factor X (FXa), human (enzyme)
binds	des-Gla-FXa (human), FXa derivative lacking the Gla domain (domain or fragment)
